Article PMC3154905

Sequences of proteins named here, by UniProt entry; tags and fusion partners are left off. A change or cut given only in a name is not applied to a line headed by its entry.
UniProt Q75G68: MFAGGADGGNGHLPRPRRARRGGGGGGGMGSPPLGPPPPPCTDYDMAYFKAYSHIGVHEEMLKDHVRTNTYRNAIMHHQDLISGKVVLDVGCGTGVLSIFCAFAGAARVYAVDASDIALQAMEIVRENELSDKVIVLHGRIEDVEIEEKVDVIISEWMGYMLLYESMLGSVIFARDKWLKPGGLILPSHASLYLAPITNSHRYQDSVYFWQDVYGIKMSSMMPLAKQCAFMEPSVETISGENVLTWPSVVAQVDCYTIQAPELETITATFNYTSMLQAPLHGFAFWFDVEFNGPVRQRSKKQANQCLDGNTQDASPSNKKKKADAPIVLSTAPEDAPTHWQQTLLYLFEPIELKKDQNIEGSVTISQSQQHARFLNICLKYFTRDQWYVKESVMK
UniProt Q7XKC0: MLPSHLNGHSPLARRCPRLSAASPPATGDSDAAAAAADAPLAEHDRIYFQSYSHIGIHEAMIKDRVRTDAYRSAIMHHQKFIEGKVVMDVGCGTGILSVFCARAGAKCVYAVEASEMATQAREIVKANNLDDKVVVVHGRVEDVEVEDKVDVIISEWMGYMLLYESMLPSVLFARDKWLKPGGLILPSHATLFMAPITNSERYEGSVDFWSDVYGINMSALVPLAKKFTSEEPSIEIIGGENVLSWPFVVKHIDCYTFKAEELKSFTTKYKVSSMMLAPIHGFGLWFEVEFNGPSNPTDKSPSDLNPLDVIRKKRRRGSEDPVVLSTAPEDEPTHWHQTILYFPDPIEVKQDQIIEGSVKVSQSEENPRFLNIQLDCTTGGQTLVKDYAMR

What was measured:
[1] = molecular target: MBP-HIS-OsPRMT6a (Oryza sativa L. ssp. Japonica, Nipponbare) (UniProt Q75G68); assay: pull-down; about 2 µg of resin-bound (HIS resin) MBP-HIS or MBP-HIS-OsPRMT6a as bait, same amount of eluted GST or GST-OsPRMT6b as prey; washed with modified RIPA buffer (20 mM Tris/HCl pH 7.5, 150 mM NaCl, 5 mM EDTA, 1% Nonidet P40, 0.5% sodium deoxycholate); blot with GST antiserum (Figure 5A); both …
[2] = molecular target: GST-OsPRMT6b (Oryza sativa L. ssp. Japonica, Nipponbare) (UniProt Q7XKC0); assay: pull-down; about 2 µg of resin-bound (glutathione-Sepharose) GST or GST-OsPRMT6b as bait, same amount of eluted MBP-HIS or MBP-HIS-OsPRMT6a as prey; washed with modified RIPA buffer (20 mM Tris/HCl pH 7.5, 150 mM NaCl, 5 mM EDTA, 1% Nonidet P40, 0.5% sodium deoxycholate); blot with MBP antiserum (Figure 5B); both purified

Row | Substance | binding [1] | binding [2]
1 | GST-OsPRMT6b (from UniProt Q7XKC0) (enzyme) | binds | 
2 | MBP-HIS-OsPRMT6a (from UniProt Q75G68) (enzyme) |  | binds

No constants are given. Whether binding was seen depends on the method and setting. A result given as binding can be weak or reduced; the word gives no strength.
